The text below walks through data of the RNAGym collection of RNA variant scans (doi:10.1126/science.aae0568).

This sample is rich in variants without activity. A value given as a limit tells only on which side of the number the result lay.

The chains are these.
B1: tRNA (parent)
chain: GUUCCGUUGGCGUAAUGGUAACGCGUCUCCCUCCUAAGGAGAAGACUGCGGGUUCGAGUCCCGUACGGAACG

Variants of B1 are the subject of the series. As to the kind of experiment: yeast fitness relative to wild type (ratio to wild type); higher = fitter; tRNA-Arg(CCU), competitive growth, 37 C, YPD. In outline: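 Genotype frequency changes were the basis for Darwinian fitness relative to wild type. The frequencies came from 100-nucleotide paired-end sequencing of gene amplicons from the start population and each end population of pooled yeast strains with tRNA-Arg(CCU) gene variants at the native locus. Competition ran in YPD at 37°C for 24 hours in six replicates, genotypes needed ≥ 100 starting reads, and estimates < 0.5 were set to 0.5.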
With GUUUCCUUGGCGUUAUGGUAACGGGUCUCCCUCCUAAGGAGAAGACUCCGGGUUCGAGUCCCGUACCGAACG [C4U G6C A14U C24G G48C G67C], the yeast fitness was not above 0.5.

GUUCAGUUGGCGUAAUGGUUACGCGUCUCCCUCCUAAGGAAAAGACUGCGGGUUCGAGUCCCGUACGGAGCG [C5A A20U G41A A70G]: the yeast fitness was not above 0.5.

For GUUCGGUUGGGGUUUUGGUAACGCGUCUCCCUCCUAAGGAGAAGACUGCGGGUUCGAGUACGGUACGGAACG [C5G C11G A14U A15U C60A C62G], the yeast fitness is not above 0.5. Under GUUCCGUUGGCGUAAUGGUAACGCGUCUCCCUCUUAAGGAGAAGACUGCGGGUUCGGGUCCGGUACGGAACG [C34U A57G C62G] stands not above 0.5. The result for GUUCCGUUGGCGUAAUGGUAACGAGUCUCCCUCCUAAGGAAAAGACUGCGGGUUCGAGUGCCGUGCGGAACG [C24A G41A C60G A65G] reads not above 0.5. Under GCUGCGUUGGCGUAGUCGUAACGCGUCUCCCUCAUAAGGAGAAGACUGCGGGUUCGAGUCCCGUACGGAACG [U2C C4G A15G G17C C34A] stands not above 0.5.

On to GUUCCAUUGGCGUAAUGGUAACACGUCGCCCUCCUAAGGAGAAGACUGCGGGUUCGAGUCACGUACGGUACG [G6A G23A U28G C61A A69U], for which the yeast fitness was not above 0.5.

On to GUUCCGUUGGCGUAAUGGUAAGGCGUCUCCCUCCUAAGGAGAAGAGUGCGGGUUCGAGUCCCGUACGGAACG [C22G C46G], for which the yeast fitness is 0.974. Consider GUUCCGUUGGCGUAGUGGUAACGCGUCUCUCUCCUAAGGAAAAGACUGCGGGUUCGAGUCCCGUACGGCACG [A15G C30U G41A A69C], for which the yeast fitness is not above 0.5.

For the variant GUUCCGUUAGCGUAAUGGUAACGCGUGUCCCUCCUAAGGAGAAGACUGCGGGUUCGAGUCCCGUACGGAACG [G9A C27G], the yeast fitness was 0.757. The result for GUUCCGUUGGCGUAAGGGUAACGCGUCUCCCUCCUAAGGAGAAGACUGCGGGUUCGAGUCCCGUACUGAACG [U16G G67U] reads 0.774; that for GUUCCGUUGGCGUAAUGGUUAUGCGUCUCCCACCUAAGGAGAAGACUGCGGGUUCGAGUCCCGUAUGGAACG [A20U C22U U32A C66U], not above 0.5. Under GUUCCGUUGGCGUAAUGGUAACGCGUCUCCCUCCUAAGGAGAAGCCUGCGGGUUCGAGUCCGGUUCGGAACG [A45C C62G A65U] stands not above 0.5; under GUUCCGUUGGCGUAAUGGUAACGCGUCUCCCUCCUAAGGAGAAGACCCCGGGUUCGAGUCCCGUCCGGAACG [U47C G48C A65C], 0.619; under GUUCCGUUGGCGUAAUGGUAACGCGUCUCCUUCAUAUCGAGAAGACUGCGGGUUCGAGUUACGUACGGCACG [C31U C34A A37U G38C C60U C61A A69C], not above 0.5.

As to GUUCCGUUGGCGUAAAGGUAACGCGUCUCCCUCCUAAGGAGAAGACUGCGGGUUCGGGUGCCGUACAGAACG [U16A A57G C60G G67A], the yeast fitness is not above 0.5. As to GUGCGGUUGGCGUAAUGGCAACGCGUCUCCCUCCUAAGGAGAAGACUGCGGGUUCGAGUCCCGUAUGGAACG [U3G C5G U19C C66U], the yeast fitness is 0.57. Take GUUCCGUUGGCGAAUUGGUAACGCGUCUCCCUCCUCAGGAGAAGACUGCGGGUUCGAGUCCCGUACGGAACG [U13A A15U A36C]: the yeast fitness was not above 0.5. For the variant GUUCCGUUGGCGUAAUGGUAACGCGUCUCCCUCCUAAGGAGAAGACUGCGCGUUCGAGUCUCGUACGGAACG [G51C C61U], the yeast fitness was 0.604. Under GUUCCCUUGGCGUAAUAGUAACGCGUCUCCCUCCUUAGGAGAAGAAUGCGGGUUCGAGUCCCGUACGGAACG [G6C G17A A36U C46A] stands not above 0.5; under GUUGCGUUGGCGUAAUGGUAACGCGUCUGCCUCCUAAGGAGAAGACUGCGGGUUCGCGUCCCGUACGGAACG [C4G C29G A57C], 0.612. Take GUUCCGUUGGCGUAAUGGUAACGCGUCUCCCUCCUAAGGAGAAGACUGUGGGUACGAGUCCCGUACGCAACG [C49U U54A G68C]: the yeast fitness is not above 0.5.

In the case of GUACCGUAGGCGUAAUGGUAACGCGUCUCCGUCCUAAGGCGAAGACUGCGGGUUCGAAUCCCGUACGGAACG [U3A U8A C31G A40C G58A], the yeast fitness was not above 0.5. On to GUUCCGUUGGCCUAAUGGUAACGCGACUCCCUCCUAAGGAGAAGACUGCGGGUUCGAGUCCCGUACUGAACG [G12C U26A G67U], for which the yeast fitness is not above 0.5.

As to GUUCCGUUGGCGUAAUGGUUAAGCGUCUCCCUCCGAAGGAGAGGACUGCGGGUUCGAGUCCCGUACGGAUCG [A20U C22A U35G A43G A70U], the yeast fitness is not above 0.5. With GUUCGGUUGGCGUAAUGGUGACGCGUCUCCCUCCUAAGGGGAAAAGUGCGGGUUCGAGUGUCAUACGGAACG [C5G A20G A40G G44A C46G C60G C61U G63A], the yeast fitness is not above 0.5. Under GUUCCGUUGGCGUAAUGGUAACGGGUCUCCCUCCCAAGGAGAAGACUGUGGGUUCGAGUCCCGUACGGAACG [C24G U35C C49U] stands not above 0.5; under GUUCCGUUGGCGUAAUGGUAACACGUCUCCCUCCUAAGGAGAAGCCUGCGGGUCCGAGUCCCGUACGGAACG [G23A A45C U54C], not above 0.5; under GUUCCAUUGGCGUAAUGGUAACGCGUCUCCCUCCUAUGGAGAAGACUGAGGGUUCGAGUCCUGUACGGAACG [G6A A37U C49A C62U], not above 0.5. Take GUUCCGUUGGCGUAGUGGUAACGCGUCUCCCUCCUAAGGAGAAGACUGAGGGUUCGCGUCCCGUACGGUACG [A15G C49A A57C A69U]: the yeast fitness was not above 0.5. In the case of GUUCCGUUGGCGUAAUGGUAACGCGUCUCCCUCCGAGGGAGAAGACUGUGGGUUCGAGUCCCGUACGGAACG [U35G A37G C49U], the yeast fitness was not above 0.5.

As for GUUCCGUUGGCGUAAUGGUAACGUGUCUCCCUCGUAAGGAGAAGACUGCGGGUUCGAGCCCCGUACGGAACG [C24U C34G U59C], the yeast fitness is not above 0.5.

In the case of GUUUCGUUGGCGUAAUGAUAACGCGUCUCCCUCCUAAGGAGAAGACUGCGGGUUCGAGUCCCGUACUGAACG [C4U G18A G67U], the yeast fitness was not above 0.5.

In the case of GUUCCGUUGGCGUAAUGGUAACGCGUCUCCCUCCUAAGGCGAAGACUGCGGGUUCGAGGGCCGUACGGAACG [A40C U59G C60G], the yeast fitness is not above 0.5. Regarding GUUCGAUUGGCGUAAUGGUAACGCGUCUUCCUGCUAAAGAGAAGACUGCGGGUUCGAGGCCCGUACGGAACG [C5G G6A C29U C33G G38A U59G], the yeast fitness is 0.562.

GUUCCGUUAGCGUAAUGGUAACGCGUCUCCCUCCUAAGGAGAAGAGUGCGGGUUCGAGUCCCGUACGGAACG [G9A C46G]: the yeast fitness was 0.993. Turning to GUUCCGUUGGCGUACUGGUAACGCCUCUUCCUCCCAAGGAGAUGACUGCGGGUUCCAGUCCCGUACGGAACG [A15C G25C C29U U35C A43U G56C], the yeast fitness was not above 0.5.

In the case of GUCCCGUUGGCGUAAUGGUAACGCGUCUCACUCCUAAGGUGAAGACUGCGGGUUCGAUUCCCGUACGGAACG [U3C C30A A40U G58U], the yeast fitness was not above 0.5.
